Data as given in the supplement of paper PMC3334620.
The full ranking holds about 33,000 sequences; the median of “E-score (-0.5 to 0.5)” is about -0.0059, and the highest 2% start at about 0.26. The list shows a part of the results.

Molecular target: T1, Cin5 (UniProt P40917)
T1 sequence: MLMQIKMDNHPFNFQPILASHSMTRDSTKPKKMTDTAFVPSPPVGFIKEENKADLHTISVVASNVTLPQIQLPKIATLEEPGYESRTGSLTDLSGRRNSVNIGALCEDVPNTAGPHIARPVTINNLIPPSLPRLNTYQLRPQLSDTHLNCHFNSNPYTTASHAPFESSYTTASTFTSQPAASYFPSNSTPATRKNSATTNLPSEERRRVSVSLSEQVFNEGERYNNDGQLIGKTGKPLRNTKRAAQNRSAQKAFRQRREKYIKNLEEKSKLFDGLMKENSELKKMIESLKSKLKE
Test: PBM E-score (8-mer binding enrichment) (E-score (-0.5 to 0.5)); higher = stronger / more preferred TF binding
Conditions: protein concentration: 100 nM; construct: GST-full length
Summary of the method: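 The E-score, a modified Wilcoxon-Mann-Whitney statistic, was computed by the Universal PBM Analysis Suite for every ungapped eight-base word pooled with its reverse complement. Scans behind it were normalised with masliner after bound GST-tagged yeast transcription factors were detected with fluorescent anti-GST. The proteins, at about 100-200 nM, had been applied to universal all-10-mer Agilent arrays made double-stranded by primer extension.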

Sequence	PBM E-score
CAAGGCGG	-0.138
AGAAGCTA	-0.223
ATACCCAA	0.163
GTCCCCAA	-0.0799
GCAGGTAA	0.0243
AATGGCAC	0.00736
CTCGCGCA	-0.0261
ACACGCCT	-0.127
AATGCGCG	0.188
GTGGTAGA	-0.137
ATCTGCTA	0.0958
CAGCAACC	-0.0685
TACTATAA	0.333
ACTCGGAG	-0.0716
CCGCTCCG	-0.144
CAGGCGCG	-0.0492
AACGATGA	0.113
ACCCATAT	0.211
GTTTACGA	0.0113
CGAGAGCG	-0.0587
AACGCTTG	-0.119
TATCAAGA	0.164

Sequence	PBM E-score
ACCTGATC	-0.0288
ACAGAACC	-0.0371
TGTATAAA	0.114
AAACCCTC	-0.0965
GCACGGTA	-0.221
CTGACTCC	-0.13
ACGAGAAC	0.0329
CTCTTAAC	-0.047
ACATTTAA	0.17
ATGTACGC	-0.0147
ACGATATG	0.245
GCCCGCAC	0.0134
ATTCCCAC	-0.00223
AATGAGGC	-0.0978
GCAATCAC	0.054
TAGGCAAA	0.0344
AAAGGCGG	-0.104
GCACTTCC	-0.0696
CCTCCGAA	-0.207
GAACAGGC	-0.132
CTGATTGA	-0.044
AATAGCGA	0.187

Laid out differently: entries from further up.
Sequence | PBM E-score
ACCTGATC | -0.0288
ACGAGAAC | 0.0329
AATAGCGA | 0.187

Next entries:

Sequence	PBM E-score
AAACCACT	0.0657
GCCCGGAC	-0.273
ACTCGCTA	-0.0453
AATACCTG	0.0667
AATAGGTC	0.0429
ACCGATTA	0.256
CGTCACAG	0.0712
ATAAGCGA	0.267
ACGCACAC	-0.0238
AGTGTGAT	0.176
CGGGGAGC	-0.205
ATTGCACA	0.151
CGCACGAC	-0.171
GAGAAGTA	0.0723
AACCGTTC	0.115
AGGTGGGC	-0.218
ACCCACCT	-0.105
AGTCGAAT	-0.0202
CCTGTCAC	-0.181
ATTTCGTC	0.175
TATAACAA	0.295
CCCGAGGG	-0.255

Sequence	PBM E-score
GTGAAGTA	0.0572
AATGAGAA	0.0175
CCTGTACC	-0.146
CCGACAAC	-0.167
AACTTAGT	0.0599
ATCATGTG	0.111
CGGGATAC	-0.0343
ATAATGCG	0.153
GGCTCCCC	-0.355
ACTGATCG	-0.0818
GCCTGGGA	-0.238
AAACTACA	0.198
ACGGCAGA	0.126
CATCGAAC	0.15
CTCCCAGA	-0.289
ACAGAAGC	0.0995
GCCATGGC	-0.236
ATACGAAC	0.175
GAGGGGGA	-0.324
AGCACCCA	-0.00596
